Test results reported in PMC12948199.
These are yes or no findings as the source states them, for the method shown. In cells and extracts the contact can be indirect. Some entries that bind do so weakly or less than the wild type. For some assays here: Tags and fused reporters may be left off the sequences shown.

By UniProt entry, the sequences of proteins in these tests, tags left out.
UniProt P10415: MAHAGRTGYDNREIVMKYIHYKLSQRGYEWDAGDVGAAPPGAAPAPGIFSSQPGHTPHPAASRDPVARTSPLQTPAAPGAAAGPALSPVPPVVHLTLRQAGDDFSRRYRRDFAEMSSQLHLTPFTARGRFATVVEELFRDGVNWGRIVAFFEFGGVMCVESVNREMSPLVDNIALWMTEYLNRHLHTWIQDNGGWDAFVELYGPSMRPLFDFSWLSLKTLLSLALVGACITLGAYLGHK

T1: Flag-tagged A20 (wild type) (UniProt P21580)
T1 sequence: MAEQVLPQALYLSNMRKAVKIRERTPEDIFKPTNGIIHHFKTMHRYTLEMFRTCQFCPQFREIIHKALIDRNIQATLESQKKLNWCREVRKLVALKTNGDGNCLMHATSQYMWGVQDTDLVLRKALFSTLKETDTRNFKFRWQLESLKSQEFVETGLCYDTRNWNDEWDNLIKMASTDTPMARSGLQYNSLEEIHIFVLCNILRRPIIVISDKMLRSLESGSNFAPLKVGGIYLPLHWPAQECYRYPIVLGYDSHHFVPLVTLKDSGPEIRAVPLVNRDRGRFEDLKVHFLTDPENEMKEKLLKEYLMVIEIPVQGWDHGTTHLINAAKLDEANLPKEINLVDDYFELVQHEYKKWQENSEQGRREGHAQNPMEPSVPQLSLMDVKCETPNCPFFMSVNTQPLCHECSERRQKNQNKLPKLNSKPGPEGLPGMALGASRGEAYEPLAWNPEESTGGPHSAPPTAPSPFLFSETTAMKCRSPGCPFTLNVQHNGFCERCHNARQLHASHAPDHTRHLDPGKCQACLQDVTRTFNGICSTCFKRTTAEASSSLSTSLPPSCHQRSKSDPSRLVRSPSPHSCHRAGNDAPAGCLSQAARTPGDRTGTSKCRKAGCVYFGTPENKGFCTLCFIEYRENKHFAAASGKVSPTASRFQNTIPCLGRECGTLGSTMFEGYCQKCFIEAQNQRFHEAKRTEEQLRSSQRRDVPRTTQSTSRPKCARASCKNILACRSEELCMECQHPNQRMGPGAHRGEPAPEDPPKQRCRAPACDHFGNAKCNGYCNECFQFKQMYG

T2: A20 (tumor necrosis factor alpha-induced protein 3), endogenous (human (endogenous in HCT116 and THC8307)) (UniProt P21580)
T2 sequence: T1 sequence

B1: IKK-β, endogenous (protein, UniProt O14920 1-756)
chain: MSWSPSLTTQTCGAWEMKERLGTGGFGNVIRWHNQETGEQIAIKQCRQELSPRNRERWCLEIQIMRRLTHPNVVAARDVPEGMQNLAPNDLPLLAMEYCQGGDLRKYLNQFENCCGLREGAILTLLSDIASALRYLHENRIIHRDLKPENIVLQQGEQRLIHKIIDLGYAKELDQGSLCTSFVGTLQYLAPELLEQQKYTVTVDYWSFGTLAFECITGFRPFLPNWQPVQWHSKVRQKSEVDIVVSEDLNGTVKFSSSLPYPNNLNSVLAERLEKWLQLMLMWHPRQRGTDPTYGPNGCFKALDDILNLKLVHILNMVTGTIHTYPVTEDESLQSLKARIQQDTGIPEEDQELLQEAGLALIPDKPATQCISDGKLNEGHTLDMDLVFLFDNSKITYETQISPRPQPESVSCILQEPKRNLAFFQLRKVWGQVWHSIQTLKEDCNRLQQGQRAAMMNLLRNNSCLSKMKNSMASMSQQLKAKLDFFKTSIQIDLEKYSEQTEFGITSDKLLLAWREMEQAVELCGRENEVKLLVERMMALQTDIVDLQRSPMGRKQGGTLDDLEEQARELYRRLREKPRDQRTEGDSQEMVRLLLQAIQSFEKKVRVIYTQLSKTVVCKQKALELLPKVEEVVSLMNEDEKTVVRLQEKRQKELWNLLKIACSKVRGPVSGSPDSMNASRLSQPGQLMSQPSTASNSLPEPAKKSEELVAEAHNLCTLLENAIQDTVREQDQSFTALDWSWLQTEEEEHSCLEQAS

Assays:
[1] = target: T1, Flag-tagged A20 (wild type); experiment: co-IP; HEK293T cells with Flag-vector or Flag-A20; immunoprecipitation followed by western blot for BCL-2; IP lysis buffer (0.025 M Tris pH 7.4, 0.15 M NaCl, 0.001 M EDTA, 1% NP40, 5% glycerol), overnight at 4 °C, protein A/G magnetic beads
[2] = target: T2, A20 (tumor necrosis factor alpha-induced protein 3), endogenous (human (endogenous in HCT116 and THC8307)); experiment: co-IP; endogenous proteins in HCT116 and THC8307 cells; immunoprecipitation followed by western blot; IP lysis buffer (0.025 M Tris pH 7.4, 0.15 M NaCl, 0.001 M EDTA, 1% NP40, 5% glycerol), overnight at 4 °C, protein A/G magnetic beads

| Molecule | binding [1] | binding [2] |
| --- | --- | --- |
| BCL-2 (from UniProt P10415 1-239) | no binding | – |
| B1 | – | binds |
